# Over roughly 33,000 sequences, “E-score (-0.5 to 0.5)” has its median near -0.0034; the highest 2% begin near 0.25. This is one part of the list.
# Target: T1, Yap3 (UniProt P38749)
# T1 sequence: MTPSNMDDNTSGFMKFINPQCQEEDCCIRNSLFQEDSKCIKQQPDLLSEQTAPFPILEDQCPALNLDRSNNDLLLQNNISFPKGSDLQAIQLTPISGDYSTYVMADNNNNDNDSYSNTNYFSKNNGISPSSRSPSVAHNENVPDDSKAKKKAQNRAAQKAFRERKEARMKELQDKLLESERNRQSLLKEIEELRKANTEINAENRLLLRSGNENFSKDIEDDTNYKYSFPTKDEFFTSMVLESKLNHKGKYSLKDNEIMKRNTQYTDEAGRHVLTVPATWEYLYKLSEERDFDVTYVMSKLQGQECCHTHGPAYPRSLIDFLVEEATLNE
# Experiment: PBM E-score (8-mer binding enrichment) (E-score (-0.5 to 0.5)); higher = stronger / more preferred TF binding
# Conditions: protein concentration: 100 nM; construct: GST-full length
# Summary of the method: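 Universal all-10-mer Agilent arrays, double-stranded by primer extension on fresh or once-stripped slides, were probed with about 100-200 nM GST-tagged yeast transcription factors made by PURExpress. Fluorescent anti-GST detected bound protein, and masliner normalised the scans. E-scores from the Universal PBM Analysis Suite were given to each ungapped eight-base word pooled with its reverse complement.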
row,Sequence,PBM E-score
1,AGATGCAG,-0.0481
2,GAGAACCC,-0.212
3,ATACTTTG,0.136
4,GGTCGTGA,-0.0991
5,TCAATGGA,0.0342
6,AAAAACAC,0.204
7,ACCTGACC,-0.0748
8,GACCCCAC,-0.111
9,CAGTGCAC,-0.0136
10,CGGCACGC,-0.15
11,ATATGGAT,0.184
12,ACCTTGCT,-0.146
13,ATCCACTG,0.0249
14,ACAGCTAG,-0.0504
15,TAGCGGAA,-0.00131
16,AAAGTCCC,-0.155
17,CAAAGCAC,0.0239
18,CTGTCTTC,-0.0302
19,ACTTCGGG,-0.109
20,GGGGATCA,-0.305
21,GATAGAGC,0.00266
22,CGTGGGAA,-0.134
23,GTATTAAC,0.0508
24,ACTTTACG,0.115
25,AAAGTTCA,0.0821

row,Sequence,PBM E-score
1,TGCCAAAA,0.1
2,AAATTATT,0.275
3,AAGTAGAC,-0.0979
4,CCCGAATA,0.0745
5,ACACAGGG,-0.00095
6,CCAATTGC,-0.0704
7,GGGCTTGA,-0.17
8,GCCGAACA,0.0458
9,CCAACTAG,-0.0451
10,TTCAACAA,0.0699
11,TGCTGTAA,-0.0361
12,AACCTGAA,-0.188
13,CATGGCAA,0.0727
14,GACATTAC,0.0986
15,AGGCCGAA,-0.192
16,GGCGATAA,0.0308
17,CACATCCC,-0.125
18,ATGATGAA,0.253
19,AGAAGCAG,0.0729
20,CATAGTGG,0.109
21,TATCGCGA,0.19
22,ACCAACTG,0.0875
23,AGATCGTC,-0.134
24,AGCCGTGG,-0.196
25,CTCTGGTA,0.0338

# Reprinted at random: 3 entries already listed
row,Sequence,PBM E-score
20,GGGGATCA,-0.305
2,GAGAACCC,-0.212
2,AAATTATT,0.275

# Following part:

row,Sequence,PBM E-score
1,ACAAGGTG,0.0744
2,GACGAGGA,-0.0396
3,ATTTACGG,0.234
4,GATACAAC,0.114
5,CTTGCATA,0.0986
6,AGCAGATA,-0.0697
7,ATTTTGAA,0.132
8,GACTCAAC,-0.0307
9,CACCGTCG,-0.227
10,TGCATGAA,0.14
11,CCACTAAC,0.00404
12,CCATTTAC,0.108
13,ATTTAGCC,0.0798
14,ACTGAGGA,-0.158
15,AAGGGATT,0.0279
16,ACCCAGCG,-0.152
17,ACCACTAT,0.14
18,AAAGAGGT,0.0767
19,GTCCAGAA,0.00245
20,GAGATGGC,0.133
21,AAAATGGC,0.142
22,GTCCCTGA,-0.193
23,AGGTGGGG,-0.0201
24,CGTCACCC,-0.098
25,CATAGCGA,-0.056

row,Sequence,PBM E-score
1,CACTTTCG,0.126
2,CACAGTTC,0.0371
3,CTAGGAAA,0.0848
4,TCTTACCA,-0.177
5,TGCATTAA,0.172
6,CAAGTAGA,-0.0688
7,AGGGACGA,-0.128
8,CCGGCAAC,-0.163
9,GCGGCGGA,-0.0733
10,CCGTCCCG,-0.302
11,ATGACTGG,-0.204
12,GAGCTATC,-0.163
13,CCTTATGC,0.0994
14,AGTCGAGG,-0.0873
15,TAATAGAA,0.257
16,CCTTGGGA,-0.218
17,ACTTACCA,0.0639
18,CGGGCTAA,-0.145
19,ACCCCGAC,-0.215
20,AGCCTGGA,-0.0679
21,AGGGCTAG,-0.178
22,ACTATCCT,0.0365
23,AATCCCTA,0.0362
24,AAAGTCCA,-0.0709
25,GAACGAAC,0.059

row,Sequence,PBM E-score
1,GTAGACTA,-0.214
2,ATATAGAA,0.227
3,CTCAACTA,0.0192
4,AGACAGAC,0.197
5,AGGGTCAG,-0.376
6,GCCTCAAC,-0.0901
7,TAATGCCA,0.114
8,ACTTCCTG,0.0919
9,CGATGCAG,-0.124
10,GAATCAAA,0.0372
11,ATACTTAC,0.0503
12,TCTATCCA,0.0392
13,TAGACACA,-0.0965
14,AGTTGTCA,0.122
15,ACTTATCA,0.0773
16,ATAAGGGG,-0.00492
17,AGGTGTTC,0.0558
18,CCTACCGC,-0.241
19,AGCTATTG,-0.0447
20,CAGGGGGG,-0.5
21,GCGATATA,0.155
22,AAGAAGAA,0.127
23,CAGAGGGA,-0.221
24,AGTCGTTG,-0.13
25,ATACGCGC,-0.0134

row,Sequence,PBM E-score
1,CGGAACAC,0.0384
2,ATGTCGCA,0.149
3,CCACGCTA,-0.104
4,CAGTGTCA,-0.0211
5,TACATAGA,0.134
6,AGCCTCCG,-0.189
7,CTCTACGA,-0.0546
8,GCAACCGC,-0.0795
9,ATGGAAAG,0.136
10,ACGCAAGA,0.124
11,AAGTCATA,0.111
12,GATACTAA,0.112
13,GATTGGAA,0.0179
14,AACCGGCG,0.101
15,AGAGGGGA,-0.262
16,GTCTCACA,0.107
17,CCGTTTCA,0.0876
18,ACAGGTTG,0.0356
19,AACTTTGA,0.0683
20,ACCCGTCG,-0.251
21,AGGAAAGA,0.0841
22,AGCACTCG,-0.198
23,CGCATCTC,-0.0873
24,AGTCCTGG,-0.289
25,CCATCCTC,-0.158

# Single entries from the results shown.
# CTCAACTA | PBM E-score: 0.0192
# AAAGTTCA | PBM E-score: 0.0821

# Later entries:

row,Sequence,PBM E-score
1,CAAAGATG,0.0268
2,TCCTCGCA,-0.169
3,CGCAGAAC,0.102
4,CTGCTGCA,-0.0208
5,CATTTCGG,-0.0177
6,GACCCATC,-0.284
7,GAAACACA,0.102
8,CGCGGAAA,0.0224
9,CAGCGACA,-0.147
10,ACGGATAA,0.189
11,CCACTTCC,0.0421
12,ATCAAGAC,-0.00507
13,AGTTTGAC,0.105
14,CCCTGTAA,0.0624
15,CTAGTTGA,0.209
16,CCTCGTCA,0.19
17,ACTCAGTG,-0.231
18,AATTAGAG,0.145
19,AAAAAGCT,-0.0767
20,CTCACTAC,0.0454
21,ATATATGG,0.259
22,ACCATATC,0.0587

# — the supplement of paper PMC3334620
